Source: patent US20260151519A1
Results are given in words; binding and its absence hold for the method and conditions named. Some binding calls cover weakened binding; strength is not graded here.

Columns and labels:
[1] = biological target: Human Nectin-4 (human) (UniProt Q96NY8); assay: SPR sensorgrams
[2] = biological target: T1, Murine Nectin-4 (mouse) (UniProt Q8R007); assay: SPR sensorgrams
T1 sequence: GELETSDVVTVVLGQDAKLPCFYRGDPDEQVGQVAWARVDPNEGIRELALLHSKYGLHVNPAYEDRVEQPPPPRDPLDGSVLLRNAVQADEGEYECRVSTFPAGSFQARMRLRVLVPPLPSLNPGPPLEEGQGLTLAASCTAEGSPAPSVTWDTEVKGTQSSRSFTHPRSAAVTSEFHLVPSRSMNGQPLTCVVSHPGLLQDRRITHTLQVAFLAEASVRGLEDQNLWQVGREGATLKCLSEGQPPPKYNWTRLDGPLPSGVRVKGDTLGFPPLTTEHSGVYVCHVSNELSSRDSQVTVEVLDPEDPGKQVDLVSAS

[3] = biological target: Human Nectin-4 (human) (UniProt Q96NY8); assay: SPR (Biacore), Nectin-4 amine-coupled to the chip, miniprotein flowed as analyte, 1:1 binding model, 25 C
[4] = biological target: T1, Murine Nectin-4 (mouse); assay: as above
[5] = biological target: Human Nectin-4 (human) (UniProt Q96NY8); assay: SPR (Biacore), Nectin-4 amine-coupled to the chip, miniprotein conjugate flowed as analyte, 1:1 binding model, 25 C
[6] = biological target: T1, Murine Nectin-4 (mouse); assay: as above
[7] = biological target: Human Nectin-4 (human) (UniProt Q96NY8); assay: SPR (Biacore), Nectin-4 on the chip, 138La-DOTA-PEG4 miniprotein conjugate flowed as analyte, 1:1 binding model, 25 C
[8] = biological target: T1, Murine Nectin-4 (mouse); assay: as above
[9] = biological target: Human Nectin-4 expressed on cells (human) (UniProt Q96NY8); assay: DELFIA whole-cell assay

CEYDEEFFAGLKRLRGGDICYYIKKKFDKVPDLCIEEILDKLGC (designed binder, N-term acetyl) [C9]
binding [1]: binds | binding [2]: binds | binding [3]: binds | binding [4]: binds

CEYDEEFFAGLKRLRGGDICYYIKKKFDKVPDLCIEEILDKLGC (designed binder, N-term DOTA-PEG4) [C12]
binding [1]: binds | binding [2]: binds | binding [5]: binds | binding [6]: binds

CEYDEEFFAGLKRLRGGDICYYIKKKFDKVPDLCIEEILDKLGC (designed binder, N-term 138La-DOTA-PEG4) [C91]
binding [1]: binds | binding [2]: binds | binding [7]: binds | binding [8]: binds

CEYDEEFFTALKRLRGGDICQYIQAKFQYLPALCIEEILDNLGCS (designed binder, N-term Biotin-PEG4; Kme at 12; Kme3 at 26) [C302]
binding [9]: binds

CEYDEEFFTALKRLRGGDICQYIQAKFQYLPALCIEEILDNLGCS (designed binder, N-term Biotin-PEG4; Kme2 at 12; Kme3 at 26) [C303]
binding [9]: binds

CEYDEEFFTALKRLRGGDICQYIQAKFQYLPALCIEEILDNLGCS (designed binder, N-term Biotin-PEG4; Kipr at 12; Kme3 at 26) [C304]
binding [9]: binds
